Test results from article doi:10.1101/2024.04.25.591203.
These are yes or no findings as the source states them, for the method shown. Binding seen in cells or lysates may run through a third protein. Some binding calls cover weakened binding; strength is not graded here.

Sequences of proteins named here, by UniProt entry; tags and fusion partners are left off. A change or cut given only in a name is not applied to a line headed by its entry.
UniProt Q9NYV8: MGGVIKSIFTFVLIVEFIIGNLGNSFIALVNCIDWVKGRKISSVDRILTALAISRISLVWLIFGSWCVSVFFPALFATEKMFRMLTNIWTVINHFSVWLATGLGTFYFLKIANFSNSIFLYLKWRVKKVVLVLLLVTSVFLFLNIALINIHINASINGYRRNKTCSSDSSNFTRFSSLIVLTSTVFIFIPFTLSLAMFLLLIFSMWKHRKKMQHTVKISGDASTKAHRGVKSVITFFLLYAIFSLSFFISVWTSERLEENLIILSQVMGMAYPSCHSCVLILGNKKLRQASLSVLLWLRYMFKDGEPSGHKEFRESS
UniProt P13569: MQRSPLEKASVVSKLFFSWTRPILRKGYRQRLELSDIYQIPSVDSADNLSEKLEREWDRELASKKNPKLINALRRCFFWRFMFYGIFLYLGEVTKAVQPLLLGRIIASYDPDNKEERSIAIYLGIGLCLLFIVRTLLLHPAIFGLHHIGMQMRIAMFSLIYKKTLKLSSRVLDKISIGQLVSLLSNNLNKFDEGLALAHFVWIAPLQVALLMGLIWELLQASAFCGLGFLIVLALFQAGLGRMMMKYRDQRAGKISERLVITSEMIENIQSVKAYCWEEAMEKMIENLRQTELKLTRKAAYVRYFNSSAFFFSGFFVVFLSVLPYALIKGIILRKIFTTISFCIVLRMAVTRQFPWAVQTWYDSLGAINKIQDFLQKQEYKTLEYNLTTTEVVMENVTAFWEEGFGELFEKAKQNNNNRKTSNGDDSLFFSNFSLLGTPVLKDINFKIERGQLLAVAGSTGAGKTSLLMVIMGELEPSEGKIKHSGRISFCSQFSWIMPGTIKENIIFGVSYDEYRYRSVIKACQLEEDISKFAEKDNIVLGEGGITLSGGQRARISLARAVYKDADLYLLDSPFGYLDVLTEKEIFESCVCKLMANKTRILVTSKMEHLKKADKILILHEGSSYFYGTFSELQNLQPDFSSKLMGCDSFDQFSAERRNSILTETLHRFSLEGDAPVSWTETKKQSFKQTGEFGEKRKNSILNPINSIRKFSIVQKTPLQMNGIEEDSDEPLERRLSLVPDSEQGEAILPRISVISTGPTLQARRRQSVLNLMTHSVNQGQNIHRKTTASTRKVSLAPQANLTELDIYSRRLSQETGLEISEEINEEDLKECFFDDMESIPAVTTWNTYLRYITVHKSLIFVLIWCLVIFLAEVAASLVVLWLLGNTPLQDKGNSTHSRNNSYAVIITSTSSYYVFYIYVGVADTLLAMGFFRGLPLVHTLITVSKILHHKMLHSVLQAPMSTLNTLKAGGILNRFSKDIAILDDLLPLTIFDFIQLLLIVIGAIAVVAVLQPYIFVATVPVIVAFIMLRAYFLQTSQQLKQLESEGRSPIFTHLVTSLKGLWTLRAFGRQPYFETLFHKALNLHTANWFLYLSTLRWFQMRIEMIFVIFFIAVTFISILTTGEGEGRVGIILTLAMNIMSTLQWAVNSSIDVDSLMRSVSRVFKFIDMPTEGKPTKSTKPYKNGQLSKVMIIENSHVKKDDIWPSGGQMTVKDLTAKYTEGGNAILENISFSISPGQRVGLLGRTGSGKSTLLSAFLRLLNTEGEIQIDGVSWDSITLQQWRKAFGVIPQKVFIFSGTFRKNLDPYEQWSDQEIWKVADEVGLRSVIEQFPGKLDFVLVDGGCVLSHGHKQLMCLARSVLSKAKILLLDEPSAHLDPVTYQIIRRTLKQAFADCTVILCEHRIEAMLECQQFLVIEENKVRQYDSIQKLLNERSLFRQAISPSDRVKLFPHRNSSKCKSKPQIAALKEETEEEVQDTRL

Assays:
[1] = target: T2R14 of the SPASM sensors (UniProt Q9NYV8); assay: split reporter
[2] = target: T2R14 tagged with a C-terminus Nanoluciferase (UniProt Q9NYV8); assay: FRET or BRET

## CFTR NBD1+R-domain (351-850) of the SPASM sensor (from UniProt P13569 351-850) (domain or fragment)
[1]
  binding: no binding

## CFTR NBD2/C-terminus (1151-1480) of the sensor T2R14-SPASM-NBD2/C-terminus (from UniProt P13569 1151-1480) (domain or fragment)
[1]
  binding: binds

## CFTR R domain (595-860) of the SPASM sensor (from UniProt P13569 595-860) (domain or fragment)
[1]
  binding: no binding

## CFTR with EYFP at the N-terminus (from UniProt P13569 1-1480)
[2]
  binding: binds
